Assay results taken from doi:10.1101/230706.

By UniProt entry, the sequences of proteins in these tests, tags left out. Where a name states a change or a piece, a line headed by the entry shows the natural chain unless it says otherwise. Chains listed by the source or under a name are the forms on record and can include a tag or linker.
GFP-fused 53BP1 containing amino acids 1-34 and 1220-1711 (Q12888, form named): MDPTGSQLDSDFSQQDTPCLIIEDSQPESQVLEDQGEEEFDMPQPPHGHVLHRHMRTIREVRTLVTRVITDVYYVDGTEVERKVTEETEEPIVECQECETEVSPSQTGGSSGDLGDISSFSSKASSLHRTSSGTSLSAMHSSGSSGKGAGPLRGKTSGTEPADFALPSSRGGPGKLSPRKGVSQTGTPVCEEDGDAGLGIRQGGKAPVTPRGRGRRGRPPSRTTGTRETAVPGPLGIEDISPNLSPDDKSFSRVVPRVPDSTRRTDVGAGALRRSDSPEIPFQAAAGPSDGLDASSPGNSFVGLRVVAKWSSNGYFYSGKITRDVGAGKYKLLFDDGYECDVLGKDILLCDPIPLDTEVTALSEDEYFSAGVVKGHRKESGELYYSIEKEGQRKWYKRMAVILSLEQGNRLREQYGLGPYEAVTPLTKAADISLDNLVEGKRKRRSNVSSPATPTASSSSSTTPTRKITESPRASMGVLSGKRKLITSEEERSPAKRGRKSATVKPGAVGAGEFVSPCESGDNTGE
UniProt Q14980: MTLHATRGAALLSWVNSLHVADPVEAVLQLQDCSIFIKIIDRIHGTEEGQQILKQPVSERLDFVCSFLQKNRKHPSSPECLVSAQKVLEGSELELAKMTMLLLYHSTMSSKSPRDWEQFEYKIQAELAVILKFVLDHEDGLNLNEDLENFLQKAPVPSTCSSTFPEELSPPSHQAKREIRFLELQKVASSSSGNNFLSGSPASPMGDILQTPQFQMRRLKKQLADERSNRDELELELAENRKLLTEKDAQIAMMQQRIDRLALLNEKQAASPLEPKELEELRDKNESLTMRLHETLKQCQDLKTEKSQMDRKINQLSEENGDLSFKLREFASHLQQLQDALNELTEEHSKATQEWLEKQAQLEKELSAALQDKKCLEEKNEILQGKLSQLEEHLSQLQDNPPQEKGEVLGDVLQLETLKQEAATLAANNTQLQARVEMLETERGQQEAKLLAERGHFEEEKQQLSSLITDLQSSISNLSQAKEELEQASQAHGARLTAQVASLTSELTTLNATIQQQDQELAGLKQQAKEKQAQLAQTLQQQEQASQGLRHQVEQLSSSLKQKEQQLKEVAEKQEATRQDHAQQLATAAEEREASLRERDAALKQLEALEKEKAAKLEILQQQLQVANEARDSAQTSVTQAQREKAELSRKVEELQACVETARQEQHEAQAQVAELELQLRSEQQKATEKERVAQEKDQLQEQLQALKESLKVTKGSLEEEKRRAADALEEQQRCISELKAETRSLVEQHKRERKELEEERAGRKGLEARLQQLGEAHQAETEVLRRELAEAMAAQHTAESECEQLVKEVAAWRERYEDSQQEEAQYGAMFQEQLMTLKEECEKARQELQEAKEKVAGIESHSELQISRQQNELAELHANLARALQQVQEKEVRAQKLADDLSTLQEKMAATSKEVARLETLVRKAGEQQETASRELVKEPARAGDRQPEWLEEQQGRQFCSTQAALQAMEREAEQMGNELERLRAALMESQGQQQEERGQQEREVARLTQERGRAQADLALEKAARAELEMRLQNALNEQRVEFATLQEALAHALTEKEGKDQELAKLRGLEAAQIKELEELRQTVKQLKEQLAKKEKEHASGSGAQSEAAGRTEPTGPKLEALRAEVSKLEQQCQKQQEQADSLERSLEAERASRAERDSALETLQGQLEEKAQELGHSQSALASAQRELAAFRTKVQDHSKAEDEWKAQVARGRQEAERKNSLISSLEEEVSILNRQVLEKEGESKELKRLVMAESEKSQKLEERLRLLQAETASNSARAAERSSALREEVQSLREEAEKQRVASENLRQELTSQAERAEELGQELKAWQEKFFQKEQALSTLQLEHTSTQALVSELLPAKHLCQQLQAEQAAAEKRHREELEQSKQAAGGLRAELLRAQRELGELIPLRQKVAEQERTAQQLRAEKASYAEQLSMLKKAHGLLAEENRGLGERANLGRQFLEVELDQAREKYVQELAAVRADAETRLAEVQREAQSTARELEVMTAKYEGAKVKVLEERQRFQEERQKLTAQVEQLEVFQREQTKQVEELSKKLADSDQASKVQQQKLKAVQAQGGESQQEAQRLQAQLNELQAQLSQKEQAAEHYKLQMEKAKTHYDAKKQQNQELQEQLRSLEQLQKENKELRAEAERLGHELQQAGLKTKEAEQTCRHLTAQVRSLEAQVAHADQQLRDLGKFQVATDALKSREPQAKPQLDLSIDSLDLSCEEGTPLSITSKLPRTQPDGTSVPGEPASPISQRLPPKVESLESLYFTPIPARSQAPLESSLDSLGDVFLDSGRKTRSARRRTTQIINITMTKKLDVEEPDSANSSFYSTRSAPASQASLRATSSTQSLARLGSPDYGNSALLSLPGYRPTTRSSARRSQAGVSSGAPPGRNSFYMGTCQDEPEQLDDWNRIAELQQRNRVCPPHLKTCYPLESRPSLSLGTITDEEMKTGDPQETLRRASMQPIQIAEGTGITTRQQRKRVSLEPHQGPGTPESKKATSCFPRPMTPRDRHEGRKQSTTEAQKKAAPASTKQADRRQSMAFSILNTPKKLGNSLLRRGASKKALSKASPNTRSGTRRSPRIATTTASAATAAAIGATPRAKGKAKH

Target: GFP-fused 53BP1 containing amino acids 1-34 and 1220-1711 (UniProt Q12888)
Assay: affinity purification with mass spectrometry

binding: binds
Substance: endogenous nuclear mitotic apparatus protein (NuMA) (from UniProt Q14980 1-2115)

These are yes or no findings as the source states them, for the method shown. Binding seen in cells or lysates may run through a third protein. A yes stands for co-enrichment or nearness to the bait. Other partners may have been found.
